# According to PubChem BioAssay AID1671190 (National Center for Advancing Translational Sciences (NCATS), 2021):
# By UniProt entry, the sequences of proteins in these tests, tags left out. Where a name states a change or a piece, a line headed by the entry shows the natural chain unless it says otherwise.
# UniProt P18054: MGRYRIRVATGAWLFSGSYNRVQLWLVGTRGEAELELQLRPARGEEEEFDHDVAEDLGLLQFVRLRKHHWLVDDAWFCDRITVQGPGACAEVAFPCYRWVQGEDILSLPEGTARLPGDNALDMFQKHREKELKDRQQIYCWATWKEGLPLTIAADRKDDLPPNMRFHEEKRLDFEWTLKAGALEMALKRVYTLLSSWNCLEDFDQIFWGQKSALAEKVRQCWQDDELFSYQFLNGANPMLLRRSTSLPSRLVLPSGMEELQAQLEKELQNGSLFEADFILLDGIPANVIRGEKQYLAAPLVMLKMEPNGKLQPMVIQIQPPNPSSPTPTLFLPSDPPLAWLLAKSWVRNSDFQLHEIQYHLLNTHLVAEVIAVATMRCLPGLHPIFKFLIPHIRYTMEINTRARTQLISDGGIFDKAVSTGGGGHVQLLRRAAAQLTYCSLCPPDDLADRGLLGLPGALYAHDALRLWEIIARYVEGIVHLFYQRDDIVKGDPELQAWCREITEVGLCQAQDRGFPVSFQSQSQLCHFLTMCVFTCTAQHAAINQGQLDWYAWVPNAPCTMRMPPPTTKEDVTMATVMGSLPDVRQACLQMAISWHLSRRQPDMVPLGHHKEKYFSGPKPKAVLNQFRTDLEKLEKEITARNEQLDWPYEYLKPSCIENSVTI
# Among all 580,000 compounds or so, about 6,100 (1.1%) were called active. This list was built around the results that the source calls inconclusive (neither active nor inactive); the mix of calls is not that of the screen. The call rests on the fitted dose curve; in most records, active means well fitted inhibition curve with a large enough effect; inconclusive means small, poorly fitted or top-dose-only effect, or another doubt; inactive means no such curve, though single readings can be large or run the other way. Where the call is inconclusive, the potency comes from a doubtful curve fit.
# Molecular target: Polyunsaturated fatty acid lipoxygenase ALOX12 (Homo sapiens) (UniProt P18054)
# Experiment: Primary qHTS assay for inhibitors of human arachidonate 12S-lipoxygenase (ALOX12): Round 2
# Conditions: purified 12hLO, xylenol orange hydroperoxide absorbance; activity change, negative = inhibition: at 108 µM (top of the series) unless noted
# Outline: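 Purified human 12hLO (150 nM final) in 25 mM Hepes, 0.01% Triton X-100, pH 7.0 was preincubated 15 min at room temperature with compound. Then 40 uM arachidonic acid was added, 30 min. Hydroperoxide was read by Fe-XO absorbance ratio 573/405 nm.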
# On the % scale 0 is the no-effect control and ±100 the full control effect; potency means the concentration at half of the fitted maximal effect.
SMILES,Potency,"activity change, negative = inhibition"
O=C1NC[C@@H](CCCCN2C[C@H](Cc3ccc(O)cc3)N(Cc3ccccc3)C(=O)C2=O)N(CCC2CCCCC2)C1=O,"inconclusive: 44.7 µM [inhibitor, partial curve, poor fit]",
COc1cc(NC(=O)c2noc3c2CC(C(C)(C)C)CC3)cc(OC)c1OC (stereo unspecified),,inconclusive: -40.9% [inhibitor]
NS(=O)(=O)c1ccc(N/N=C/c2cccc(Oc3ccccc3)c2)c([N+](=O)[O-])c1,inactive,
CC(=O)Nc1ccc(-c2csc(Nc3cccc(C)n3)n2)cc1,"inconclusive: 100 µM [inhibitor, partial curve, poor fit]",
Cc1cc(C)n(CC(=O)Nc2cccc(C(F)(F)F)c2)n1,inactive,
CCNc1ncc2nc(-c3cc(F)cc(F)c3)c(=O)n(C3CC3)c2n1,"inconclusive: 25.1 µM [inhibitor, single point]",
CC(C)c1nc(SCC(=O)Nc2ccc(N(C)C)cc2)c2ccccc2n1,"inconclusive: 50.1 µM [inhibitor, partial curve, poor fit]",
Cc1ccc(-c2ccsc2C(=O)N2CCN(S(=O)(=O)c3ccc(F)cc3F)CC2)cc1,"inconclusive: 44.7 µM [inhibitor, single point]",
O=c1n(-c2ccc(Cl)cc2)nc2n1CCN(Cc1ccc(F)cc1)C2,,inactive: -0.199% [at 6.33 µM]
COCCCNC(=O)C1CC(=O)N(CCc2c[nH]c3ccc(C)cc23)C1 (stereo unspecified),inactive,
C/C(=N\NC(=S)NC1CCCCC1)c1c(F)cccc1F,"inconclusive: 39.8 µM [inhibitor, partial curve, poor fit]",
CCOc1ccc(/C=C/C(=O)c2c(O)cc(C)oc2=O)cc1,"inconclusive: 2.82 µM [inhibitor, full curve, poor fit]",
Cc1cc2nc3n(c(=O)c2n1CC(=O)Nc1ccc2c(c1)OCCO2)CCCCC3,"inconclusive: 63.1 µM [inhibitor, partial curve, poor fit]",
Cc1cnc(CC2CCCN(Cc3ccc(C#N)cc3)C2)n1C(C)C (stereo unspecified),inactive,
O=C(NCC(c1ccco1)S(=O)(=O)c1cccs1)c1c(F)cccc1F (stereo unspecified),inactive,
CCc1ccc(/C=C2/SC(=S)N(CCCC(=O)Nc3cccc(C(=O)O)c3)C2=O)cc1,"inconclusive: 79.4 µM [inhibitor, partial curve, poor fit]",
Cc1cc2c(cc(C(=O)OC(C(=O)NCc3ccco3)C(C)C)n2C)o1 (stereo unspecified),"inconclusive: 6.31 µM [inhibitor, full curve, poor fit]",
C[S+](=O)([O-])N1CCC(c2nnc3n2C(C(=O)NCc2ccc(F)cc2)CC3)CC1 (stereo unspecified),"inconclusive: 31.6 µM [inhibitor, partial curve, poor fit]",
O=C(Nc1ccccc1)Nc1cc([N+](=O)[O-])ccc1F,inactive,
Cc1nc(N)sc1-c1csc(Nc2ccccc2)n1,"inconclusive: 35.5 µM [inhibitor, single point]",
CN(C)S(=O)(=O)c1cccc(NC(=O)COc2ccccc2C(=O)NCc2ccccc2)c1,inactive,

SMILES,Potency,"activity change, negative = inhibition"
Clc1cccc(CNCCCn2ccnc2)c1,"inconclusive: 20 µM [inhibitor, partial curve, poor fit]",
CC(C)(C)OC(=O)CN(Cc1ccc(Cl)cc1)Cc1ccc([N+](=O)[O-])s1,"inconclusive: 1.22 µM [inhibitor, full curve]",
CCN(CC)C(=O)c1ccc(CN2C(=O)NC3(CCS(=O)(=O)CC3)C2=O)cc1,inactive,
N#Cc1ccc(/C=C2\CSc3ccccc3C2=O)cc1,"inconclusive: 0.126 µM [inhibitor, full curve, poor fit]",
CCC(CC)C(=O)N1CC(C(=O)NCCc2ccncc2)C2(CCOCC2)C1 (stereo unspecified),"inconclusive: 10 µM [inhibitor, partial curve, poor fit]",
COC(=O)C1=C(C)NC(C)=C(C(=O)OC)C1C(=O)OCCN1C(=O)c2ccccc2C1=O,"inconclusive: 100 µM [inhibitor, single point]",
CCCN(C(=O)c1c(-c2ccccc2)noc1C)c1c(N)n(Cc2ccccc2)c(=O)[nH]c1=O,inactive,
CCOC(=O)c1ccc(NC(=O)c2c(NCc3ccc(OC)c(OC)c3OC)sc3c2CCC(C)C3)cc1 (stereo unspecified),"inconclusive: 39.8 µM [inhibitor, partial curve, poor fit]",
O=C(NCC(c1cccnc1)N1CCc2ccccc21)c1cccc(F)c1 (stereo unspecified),inactive,
O=C(/C=C/c1ccc2ccc(Cl)cc2n1)NC1CCCCC1,"inconclusive: 56.2 µM [inhibitor, partial curve, poor fit]",
FC(F)Sc1ccc(NC(=S)NC2CCCCC2)cc1,"inconclusive: 35.5 µM [inhibitor, full curve, poor fit]",
COc1ccccc1OCC(=O)N/N=C/C=C/c1ccc([N+](=O)[O-])o1,"inconclusive: 50.1 µM [inhibitor, partial curve, poor fit]",
Cn1c(C(=O)NCCc2ccccn2)nc2nc(-c3ccccc3)c(Cl)cc21,"inconclusive: 35.5 µM [inhibitor, single point]",
CCCCN(C)Cc1cc(=O)oc2cc(-c3ccccc3)c(O)cc12,"inconclusive: 50.1 µM [inhibitor, partial curve, poor fit]",
O=C(CCSc1ccccc1)Nc1nnc(C2CC(=O)N(c3ccc(Cl)cc3)C2)s1 (stereo unspecified),inactive,
Cc1cccc(NC(=O)c2ccc(COc3ccccc3)o2)n1,inactive,
Cc1ccc(NC(=O)CN2C(=O)S/C(=C\c3cc(C)n(C)c3C)C2=O)cc1,"inconclusive: 63.1 µM [inhibitor, partial curve, poor fit]",
CC(C)c1ccc(N(CC(=O)NCCSCc2ccco2)S(C)(=O)=O)cc1,"inconclusive: 35.5 µM [inhibitor, partial curve, poor fit]",
CCCC(=O)Nc1nc2c(s1)CC(C(C)(C)C)CC2 (stereo unspecified),"inconclusive: 50.1 µM [inhibitor, partial curve]",
